Assay results: article PMC6693564, “RGG-motif self-association regulates eIF4G-binding translation repressor protein Scd6” (RNA Biology, 2019)
These are yes or no findings as the source states them, for the method shown. For some of these results: Binding calls can cover weak binding; strength is not graded here. Sequences can lack the tags named with a protein. For some of these results: Binding seen in cells or lysates may run through a third protein.

What was measured:
[1] = molecular target: T1, HisSbp1FLAG (recombinant) (yeast) (UniProt P10080); experiment: pull-down; FLAG pull-down of purified Sbp1FLAG with purified Sbp1GFP or Sbp1GFPΔRGG in the presence of RNase A; 450 nM proteins; blots with anti-GFP and anti-FLAG; both purified
T1 sequence: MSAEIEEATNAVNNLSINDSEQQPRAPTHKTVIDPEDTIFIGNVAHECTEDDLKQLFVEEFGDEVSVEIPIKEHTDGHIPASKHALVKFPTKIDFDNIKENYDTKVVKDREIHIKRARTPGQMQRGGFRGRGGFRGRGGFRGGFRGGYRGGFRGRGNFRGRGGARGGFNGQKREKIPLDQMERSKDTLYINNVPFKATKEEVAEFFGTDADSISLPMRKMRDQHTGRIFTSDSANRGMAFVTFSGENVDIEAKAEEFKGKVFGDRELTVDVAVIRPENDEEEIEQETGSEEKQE

[2] = molecular target: T2, Sbp1GST (chromosomally encoded) (yeast) (UniProt P10080); experiment: pull-down; Glutathione pull-down of chromosomally encoded Sbp1GST from yeast lysate of cells expressing galactose-inducible Sbp1 or Sbp1∆RGG; wild type and ∆HMT1 cells; blot with anti-GST and PAP antibody
T2 sequence: T1 sequence

[3] = molecular target: T3, GSTScd6 (recombinant) (yeast) (UniProt P45978); experiment: pull-down; 450 nM purified proteins with glutathione sepharose beads, 2 h at 4°C, 50mM HEPES pH7, 100mM NaCl, 1mM DTT, 2mM MnCl2, 2mM MgCl2, 1% Triton-X100, 10% glycerol, 0.25mg/ml RNase A, 10mg/ml BSA; GST fusion as bait; anti-FLAG blot; for Figure 5e Scd6FLAG first incubated with Hmt1 with or without SAM; both purified
T3 sequence: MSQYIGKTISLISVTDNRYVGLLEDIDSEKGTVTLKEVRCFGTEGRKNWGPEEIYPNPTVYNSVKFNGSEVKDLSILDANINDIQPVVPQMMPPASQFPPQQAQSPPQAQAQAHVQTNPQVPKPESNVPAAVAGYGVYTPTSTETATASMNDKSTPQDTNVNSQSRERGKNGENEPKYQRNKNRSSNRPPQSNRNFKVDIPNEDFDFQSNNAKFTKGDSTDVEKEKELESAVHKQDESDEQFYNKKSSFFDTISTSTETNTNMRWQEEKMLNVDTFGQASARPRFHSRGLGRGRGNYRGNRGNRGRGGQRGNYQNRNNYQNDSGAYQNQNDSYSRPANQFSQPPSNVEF

[4] = molecular target: GSToRGG (GST tagged only RGG motif of Scd6) (yeast); experiment: as above

Sbp1GFPΔRGG (recombinant) (yeast) (domain or fragment)
binding [1]: no binding (tested: 450 nM)

galactose-inducible Sbp1∆RGG (on plasmid, in yeast) (domain or fragment)
binding [2]: no binding

Scd6ΔRGGFLAG (recombinant) (yeast) (domain or fragment)
binding [3]: no binding (tested: 450 nM)

B1: HisScd6FLAG (recombinant) (natural protein, yeast, UniProt P45978 1-349, looked up)
chain: T3 sequence
notes: Scd6, yeast; predicted molecular mass of the purified protein about 41.5 kDa; also called purified Scd6; source: E. coli BL21, purified (HisTrap HP, HiTrap Heparin HP)
binding [4]: binds
